In assay [1] the target is E2F1 (human (endogenous in 293T and Y79)) (UniProt Q01094). Put plainly: co-IP; endogenous proteins; 293T and Y79 cell extracts immunoprecipitated with anti-E2F1 antisera and immunoblotted for FoxO1.
In another assay the target is HA-E2F1 (UniProt Q01094). The experiment in a line: co-IP; 293T cells transfected with HA-E2F1 and Flag-FoxO1, lysed, immunoprecipitated with anti-HA and blotted with anti-FLAG.

The chains behind the UniProt entries cited, without tags or fusion partners.
UniProt Q01094: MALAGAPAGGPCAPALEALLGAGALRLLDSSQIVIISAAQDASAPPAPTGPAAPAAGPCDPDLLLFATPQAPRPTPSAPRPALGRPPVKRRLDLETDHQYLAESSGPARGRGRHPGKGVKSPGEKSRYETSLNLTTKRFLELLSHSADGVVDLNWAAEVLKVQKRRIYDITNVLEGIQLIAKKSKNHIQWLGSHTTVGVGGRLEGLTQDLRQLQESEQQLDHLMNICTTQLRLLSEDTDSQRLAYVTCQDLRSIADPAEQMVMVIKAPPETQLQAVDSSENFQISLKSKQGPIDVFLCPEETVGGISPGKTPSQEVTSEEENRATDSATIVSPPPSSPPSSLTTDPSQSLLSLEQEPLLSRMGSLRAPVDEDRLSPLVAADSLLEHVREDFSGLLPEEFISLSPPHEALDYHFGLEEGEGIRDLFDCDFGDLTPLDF
UniProt Q12778: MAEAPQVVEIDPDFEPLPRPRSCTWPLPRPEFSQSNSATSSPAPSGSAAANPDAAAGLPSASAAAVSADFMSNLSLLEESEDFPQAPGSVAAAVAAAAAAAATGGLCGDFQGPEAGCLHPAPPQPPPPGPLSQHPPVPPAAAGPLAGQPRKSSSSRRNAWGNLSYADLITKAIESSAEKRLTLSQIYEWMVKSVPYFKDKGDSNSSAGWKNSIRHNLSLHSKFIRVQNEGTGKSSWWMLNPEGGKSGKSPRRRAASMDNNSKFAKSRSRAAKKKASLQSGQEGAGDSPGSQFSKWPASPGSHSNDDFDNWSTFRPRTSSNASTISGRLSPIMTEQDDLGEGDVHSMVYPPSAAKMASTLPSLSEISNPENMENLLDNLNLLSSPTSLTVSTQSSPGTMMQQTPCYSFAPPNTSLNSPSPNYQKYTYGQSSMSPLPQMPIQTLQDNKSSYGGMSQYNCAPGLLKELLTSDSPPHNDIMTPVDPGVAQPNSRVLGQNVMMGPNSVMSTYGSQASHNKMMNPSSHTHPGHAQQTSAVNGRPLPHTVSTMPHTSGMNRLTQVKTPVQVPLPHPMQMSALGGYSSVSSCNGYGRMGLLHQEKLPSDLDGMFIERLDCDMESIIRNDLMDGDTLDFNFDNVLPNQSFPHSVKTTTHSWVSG

Binding data for 2 substances are collected here from paper PMC4411757.

Results are given in words; binding and its absence hold for the method and conditions named. Binding seen in cells or lysates may run through a third protein. Some entries that bind do so weakly or less than the wild type.

FOXO1 (from UniProt Q12778 1-655): the binding result in assay [1] was “binds”.

Turning to Flag-FoxO1 (from UniProt Q12778 1-655), in the assay with HA-E2F1, the binding entry was “binds”.
